The other results are listed elsewhere or left out. The main result of the screen is listed elsewhere. These columns were measured beside it and carry no call. The list favours compounds with an active or inconclusive main result. Words in brackets tell the shape of the fitted curve; partial curves, single points and poor fits give uncertain potencies.
Assay: IkB Signaling
Details: ABC-DLBCL IkBa-CBG/CBR dual luciferase ratio (green luciferase fused to IkBa over red control in OCI-Ly3 lymphoma cells), 4 h; measured here: control luc red channel unless noted
Summary of the method: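 Curves were fitted separately to fusion (green), unfused (red) and ratio luminescence, then classed by r2, magnitude and activity. Cells: OCI-Ly3, 4 h compound plus doxycycline at 37C; 10 uM MG-132 defined full response.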

Row | SMILES | AC50
1 | O=C(NC1CC(=O)N(c2ccc(Cl)cc2)C1)c1ccc2c(c1)OCO2 (stereo not given) | 6.31 µM [rising, single point]
2 | CCOc1ccccc1NC(=O)c1nc2nc(C)cc(C(F)F)n2n1 | 2.51 µM [falling, partial curve]
3 | COc1cccc(N2CCN(C(=O)C3CCN(S(=O)(=O)c4c(C)noc4C)CC3)CC2)c1 | 25.1 µM [falling, partial curve, poor fit]
4 | COc1cccc(-c2nc(CS(=O)(=O)CC(=O)Nc3c(C)cc(C)cc3C)c(C)o2)c1 | 31.6 µM [falling, single point]
5 | O=C(C1CC1)N1CCc2cc(Br)cc(S(=O)(=O)NCC3COc4ccccc4O3)c21 (stereo not given) | 25.1 µM [falling, partial curve]
6 | CCOC(=O)N1CCc2c(sc3c2c(=O)n(-c2ccc(CC)cc2)c(=O)n3CC(=O)Nc2ccc(C)cc2)C1 | 6.31 µM [falling, partial curve]
7 | COc1ccc(Cl)c(Cn2c(NCc3ccco3)nc3c2c(=O)n(C)c(=O)n3C)c1 | 10 µM [falling, partial curve]
8 | CCNc1ccc(-c2nc(-c3ccco3)no2)cc1[N+](=O)[O-] | 1.58 µM [rising, partial curve, poor fit]
9 | O=C(NCCOCCn1c(=O)oc2ccccc21)Nc1ccc(Cl)cc1 | 12.6 µM [rising, partial curve]
10 | O=C(NCc1ccccn1)c1ccc(COc2ccc(Cl)cc2)o1 | 12.6 µM [falling, partial curve]
11 | Cc1ccc2oc(=O)n(CCCOc3ccc(Cl)cc3)c2c1 | 20 µM [falling, partial curve]
12 | CNS(=O)(=O)c1cccc(C(=O)OCc2cc(Cl)cc3c2OCOC3)c1 | 25.1 µM [falling, partial curve]
13 | Cc1ccc2scc(N3CCN(c4ccc(F)cc4)CC3)c(=O)c2c1 | 31.6 µM [falling, single point]
14 | O=C1c2[nH]nc(-c3ccc(Br)cc3)c2C(c2cccc(O)c2)N1c1ccc(Cl)cc1 (stereo not given) | 7.94 µM [falling, full curve]
15 | CCOc1ccc(C(c2c(O)cc(C)n(CCOC)c2=O)N2CCC(C)CC2)cc1 (stereo not given) | 25.1 µM [falling, single point]
16 | COc1ccc(Cl)cc1NC(=O)CN(c1cccc(C)c1C)S(=O)(=O)c1ccccc1 | 7.94 µM [falling, full curve]
17 | O=C(CC1N=C2c3ccccc3N=C(SCc3ccccc3F)N2C1=O)NCc1ccc2c(c1)OCO2 (stereo not given) | 25.1 µM [falling, single point]
18 | COc1ccc(C2c3c(n(C)c4ccccc34)C(=O)N2CC(=O)Nc2ccccc2F)cc1 (stereo not given) | 31.6 µM [falling, single point]
19 | COc1ccc(CCNC(=O)c2ccc3c(c2)N(Cc2cccc(Cl)c2)C(=O)CS3)cc1OC | 12.6 µM [falling, partial curve]
20 | Cc1ccc(CCNC(=O)c2ccc(CSCc3ccccc3Cl)o2)cc1 | 31.6 µM [falling, single point]
21 | COc1cc(OC)c(NS(=O)(=O)c2cc(-c3cnc(C)o3)ccc2OC)cc1Cl | 0.501 µM [rising, full curve, poor fit]
22 | Cc1ccc(NC(=O)CN2C(=O)CCn3nc(-c4cccn4C)cc32)cc1 | 0.0794 µM [rising, full curve, poor fit]
23 | CCOc1ccc(OCC)c(NC(=O)CCC(=O)N2CCOc3ccccc32)c1 | 7.94 µM [rising, partial curve]
24 | COCCCNc1nc2c(S(=O)(=O)c3ccc(C)c(C)c3)nnn2c2ccc(Cl)cc12 | 12.6 µM [falling, partial curve]
25 | Cc1ccc2oc(-c3cc(NC(=O)c4ccco4)ccc3Cl)nc2c1 | 31.6 µM [falling, single point]
26 | CCN(CC)CCNC(=O)c1nn(C)c2c1CS(=O)(=O)c1ccccc1-2 | 3.98 µM [falling, full curve, poor fit]
27 | CCOC(=O)c1ccc(N2C(=O)c3n[nH]c(-c4ccco4)c3C2c2ccc(O)c(OC)c2)cc1 (stereo not given) | 25.1 µM [falling, single point]
28 | Cc1ccc(CNC(=O)c2nn(C)c3c2CS(=O)(=O)c2ccccc2-3)cc1 | 20 µM [falling, single point]
29 | O=C(Nc1nc2nc(-c3ccccc3)cc(=O)n2[nH]1)c1ccc(Cl)cc1 | 39.8 µM [falling, partial curve]
30 | COC(=O)c1ccccc1NC(=O)COC(=O)c1ccc(C)c(NC(=O)c2ccco2)c1 | 7.94 µM [falling, partial curve]

Reformatted as comma-separated lines: 2 of the compounds above
Row,SMILES,AC50
23,CCOc1ccc(OCC)c(NC(=O)CCC(=O)N2CCOc3ccccc32)c1,"7.94 µM [rising, partial curve]"
24,COCCCNc1nc2c(S(=O)(=O)c3ccc(C)c(C)c3)nnn2c2ccc(Cl)cc12,"12.6 µM [falling, partial curve]"

From PubChem BioAssay AID445 (National Center for Advancing Translational Sciences (NCATS), 2006)
